Laboratory results reported in PubChem BioAssay AID2551 (National Center for Advancing Translational Sciences (NCATS), 2010).
Several values for one entry are separate records, joined by “and”; a condition that tells them apart may be missing. Identical values can stand only once. Hit rate of the full screen: of about 310,000 compounds, about 17,000 (5.5%) were called active. Inconclusive results, whose numbers are uncertain, are shown with a selection of clear calls. Calls come from the whole dose curve; as a rule, active = well fitted inhibition curve with a large enough effect; inconclusive = small, poorly fitted or top-dose-only effect, or effect the other way; inactive = no such curve, though single readings can be large or run the other way. Potencies of inconclusive entries are doubtful fits and often do not repeat.

Protein sequences, listed by entry. Tags and fused reporters are not part of them. Lines headed by an entry give the natural chain unless they say otherwise; changes in a name come on top.
UniProt P51450: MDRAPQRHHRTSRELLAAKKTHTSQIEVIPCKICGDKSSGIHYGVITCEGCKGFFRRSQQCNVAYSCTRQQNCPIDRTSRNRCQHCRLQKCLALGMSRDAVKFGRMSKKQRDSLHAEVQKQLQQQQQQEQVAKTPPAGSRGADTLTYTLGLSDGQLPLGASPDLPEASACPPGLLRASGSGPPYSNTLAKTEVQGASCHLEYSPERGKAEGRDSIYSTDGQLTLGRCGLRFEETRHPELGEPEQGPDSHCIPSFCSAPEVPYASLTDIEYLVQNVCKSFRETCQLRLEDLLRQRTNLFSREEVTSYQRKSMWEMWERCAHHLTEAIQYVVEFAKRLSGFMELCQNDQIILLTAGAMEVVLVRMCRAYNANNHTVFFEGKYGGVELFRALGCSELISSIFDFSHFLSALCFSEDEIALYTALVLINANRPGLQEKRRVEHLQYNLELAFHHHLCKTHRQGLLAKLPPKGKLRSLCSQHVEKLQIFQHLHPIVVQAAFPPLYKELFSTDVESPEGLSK

Each compound was assayed against Nuclear receptor ROR-gamma (Mus musculus) (UniProt P51450) (assay: qHTS for inhibitors of ROR gamma transcriptional activity). Details: Drosophila S2 Gal4-RORgamma UAS-luciferase reporter, 20 h; series mostly up to 53.6 µM.
Method in brief: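 In this cell-based reporter format, copper sulfate (700 uM final) drives Gal4–ROR gamma fusion expression from a metallothionein promoter in Drosophila Schneider cells; compounds preincubated 1 hr, reporter read after 20 hr at ambient temperature.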
Note: nearly all actives have a fitted effect of over 60% in size.
Potency is the fitted concentration of half-maximal effect.

Row | SMILES | Potency
1 | Cc1ccc(CNC(=O)COc2ccc3c(c2)CCC3)cc1 | inconclusive: 17.8 µM [activator, single point]
2 | NCCNc1ccc(C(=O)N2c3ccccc3Sc3ccccc32)cc1[N+](=O)[O-] | inconclusive: 15.8 µM [inhibitor, single point]
3 | COc1ccc(OCC(=O)NNC(=O)c2cccs2)cc1 | inactive
4 | COc1cc(NC(=O)C2CCCN(c3ncccn3)C2)cc(OC)c1 (centres undefined) | inconclusive: 0.1 µM [activator, full curve]
5 | CO[C@]12C(COC(N)=O)C3=C(C(=O)C(C)=C(N)C3=O)N1CC1NC12 (some centres undefined) | inactive
6 | COc1cccc(NC(=O)CCS(=O)(=O)c2cccs2)c1 | inconclusive: 35.5 µM [activator, single point]
7 | Cn1c(-c2c(N)n(CCc3ccccc3)c3nc4ccccc4nc23)nc2ccccc21 | inconclusive: 20 µM [inhibitor, single point]
8 | CCN(C(=O)c1ccco1)c1nc(CC(=O)Nc2ccc(Cl)cc2)cs1 | inconclusive: 11.2 µM [activator, single point]
9 | CC(C)NC(=O)C(c1ccc(F)cc1)N(Cc1ccco1)C(=O)CCC(=O)Nc1ccccn1 (centres undefined) | inconclusive: 3.55 µM [activator, partial curve, poor fit]
10 | CCC1(c2ccc(Cl)cc2)NC(=S)N(c2ccccc2)N1 (centres undefined) | inconclusive: 11.2 µM [inhibitor, partial curve]
11 | CC1(C)CC(=O)C=C(NNC(=O)c2ccccc2O)C1 | active: 12.6 µM
12 | CCN(CC)S(=O)(=O)c1cccc(C(=O)N[C@H](C(=O)OCC(=O)Nc2ccccc2)C(C)C)c1 | inconclusive: 35.5 µM [activator, single point]
13 | Cc1noc(C)c1CN1C(=O)NC(Cc2ccccc2)(Cc2ccccc2)C1=O | active: 11.2 µM
14 | COc1ccc(NS(=O)(=O)c2cccc3nsnc23)cc1OC | inconclusive: 22.4 µM [activator, single point]
15 | CC(C)[C@@H](CC(=O)N[C@@H]1CCCC[C@H]1C(=O)N[C@H](CC(=O)N[C@@H](CCC(=O)O)CC(=O)O)Cc1ccccc1)NC(=O)C[C@H](Cc1ccccc1)NC(=O)[C@@H]1CCCC[C@H]1N | inactive
16 | O=C(O)c1cccc(S(=O)(=O)Nc2ccc([N+](=O)[O-])cc2O)c1 | inactive
17 | Cc1ccc(S(=O)(=O)N(CCO)Cc2cc3ccc(C)c(C)c3[nH]c2=O)cc1 | inconclusive: 35.5 µM [activator, single point]
18 | CCOC(=O)CCc1c(C)c2ccc(OCC(=O)N(CC)CC)c(C)c2oc1=O | inconclusive: 35.5 µM [inhibitor, single point]
19 | CCn1c(Cc2ccccc2)nnc1SCC(=O)NC1CC1 | inconclusive: 6.31 µM [activator, single point]
20 | O=C(Nc1nccs1)c1ccc(COc2c(F)c(F)cc(F)c2F)cc1 | active: 11.2 µM
21 | Cc1ccc(-c2noc(-c3ccccc3C(=O)N3CCCC3)n2)cc1 | inconclusive: 4.47 µM [activator, full curve]
22 | CC(C)(C)c1ccc(OCc2ccc(C(=O)NCc3cccnc3)o2)cc1 | inconclusive: 31.6 µM [inhibitor, single point]

Row | SMILES | Potency
23 | COc1ccccc1-n1c(-c2ccccc2)c[n+]2c1CCc1ccccc1-2 | inconclusive: 14.1 µM [inhibitor, single point] and inconclusive: 7.08 µM [inhibitor, partial curve]
24 | Cc1ccc(N2C(=O)CC(NNc3nc4ccccc4s3)C2=O)cc1C (centres undefined) | inconclusive: 17.8 µM [activator, single point]
25 | O=C(CN1C(=O)S/C(=C\c2ccc(Cl)cc2)C1=O)NC1C=CS(=O)(=O)C1 (centres undefined) | inactive
26 | Cc1ccc(S(=O)(=O)N(C)C)cc1-n1c(SCC(=O)N(C)C)nc2ccccc2c1=O | inactive
27 | CC(C)c1ccc(O)c(NC(=S)NC(=O)c2cccnc2)c1 | active: 0.708 µM
28 | COc1ccc(CNC(=S)NCc2ccc(Cl)cc2)cc1OC | inconclusive: 35.5 µM [inhibitor, single point]
29 | Cc1ccc(-n2nc3c(N4CCC(C(=O)N5CCN(C)CC5)CC4)nnc(C)c3c2C)cc1 | inactive
30 | NC(=S)N/N=C/c1ccc([N+](=O)[O-])cc1 | inconclusive: 15.8 µM [inhibitor, single point]
31 | CCCN1CNc2c(c(=O)[nH]c(=S)n2CCc2ccccc2)C1 | inactive
32 | COc1ccc(C2CCCN2C(=S)Nc2cccc(Cl)c2C)cc1OC (centres undefined) | inconclusive: 5.62 µM [inhibitor, full curve, poor fit]
33 | CC(C)n1nc(C(=O)OCn2nnc3ccccc3c2=O)c2ccccc2c1=O | inactive
34 | CN(C)c1cccc(C(=O)NCC2CCCO2)c1 (centres undefined) | inconclusive: 8.91 µM [activator, partial curve]
35 | c1ccc2c(c1)nc1n2CCN1CCN1CCCC1 | inactive
36 | COc1cccc(=O)c2c(C)n(C)c(C)c12 | inconclusive: 2.24 µM [inhibitor, partial curve]
37 | O=C(NCc1ccccn1)C(=O)NCC1OCCN1S(=O)(=O)c1ccc([N+](=O)[O-])cc1 (centres undefined) | inactive
38 | O=C(NCc1cccs1)c1ccc(CS(=O)(=O)c2ccc(Cl)cc2)o1 | inconclusive: 35.5 µM [activator, single point]
39 | CCOC(=O)c1ccc(NC(=S)NN2CCN(C)CC2)cc1 | inconclusive: 35.5 µM [inhibitor, single point]
40 | O=[N+]([O-])c1ccc(O)c(/C=N/n2c(-c3ccccc3)n[nH]c2=S)c1 | inconclusive: 22.4 µM [inhibitor, single point]
41 | Cc1cc([N+](=O)[O-])cc2c1NC(=O)C2(O)N1CCOCC1 (centres undefined) | active: 11.2 µM
42 | C#CC[N+](C)(C)CCCCCCCCCC | inconclusive: 11.2 µM [activator, partial curve]
43 | CCN(CC)S(=O)(=O)c1cccc(NC(=O)COc2ncnc3sccc23)c1 | inconclusive: 35.5 µM [activator, single point]
44 | Cc1ccc([N+](=O)[O-])cc1NC(=O)c1ccc(CSc2ccccc2)cc1 | inactive
